{"source": "patent US12433902B2", "about": "“Liposomal formulations for inhibiting SARS-CoV-2 replication and reducing lung inflammation” (priority 2021, dated 2025)", "key": {"[1]": {"test_system": "ovalbumin sensitized C57BL/6 mice", "experiment": "Lung histology and quantitative histopathology score"}, "[2]": {"test_system": "Eosinophil Peroxidase (EPO)", "experiment": "Eosinophil peroxidase (EPO) activity in bronchoalveolar lavage (BAL) fluid", "assay_type": "in vivo, C57BL/6 mice", "details": "for EPO activity in BAL with Mch challenge / EPO activity in BAL compared to Sensitized, Untreated group: 4 weeks; for EPO activity in BAL compared to Sensitized, Untreated group: without Mch challenge"}, "[3]": {"details": "with Mch challenge, 20 μg budesonide daily, 4 weeks"}}, "note": "“Also recorded” adds a separate entry of the source. At least one structure is not confirmed: it was looked up by name or label, or the drawing left a doubt."}
{"smiles": "CCCC1O[C@@H]2C[C@H]3[C@@H]4CCC5=CC(=O)C=C[C@]5(C)[C@H]4[C@@H](O)C[C@]3(C)[C@]2(C(=O)CO)O1", "note": "(some centres unmarked) [budesonide]", "values": [{"measurement": "inflammation on histopathological examination of the lung tissues", "setting": "[1]; 20 μg dose of BUD", "value": "decrease"}, {"measurement": "lung inflammation (histology)", "setting": "[1]; [3]", "value": "marked increase in inflammation along with bronchoconstriction and cellular infiltrates"}, {"measurement": "total histopathology score compared to Sensitized, Untreated group", "setting": "[1]; [3]", "value": "None of the other treatment groups (including Daily budesonide treatment group) showed a similar reduction; also recorded: None of the other treatment groups, including the Daily budesonide (D-BUD) treatment group, Weekly budesonide (WK-BUD), or Empty liposome carrier (EMP-PRO) treatment groups showed a similar reduction"}, {"measurement": "total histopathology score compared to Sensitized, Untreated group", "setting": "[1]; with Mch challenge, budesonide once a week, 4 weeks", "value": "None of the other treatment groups, including the Daily budesonide (D-BUD) treatment group, Weekly budesonide (WK-BUD), or Empty liposome carrier (EMP-PRO) treatment groups showed a similar reduction"}, {"measurement": "lung inflammation (histology)", "setting": "[1]; without Mch challenge, 20 μg budesonide daily, 4 weeks", "value": "reduction in lung inflammation"}, {"measurement": "total lung histopathology score compared to Sensitized, Untreated group", "setting": "[1]; without Mch challenge, 20 μg budesonide daily, 4 weeks, P<0.030", "value": "significant reduction; also recorded: significantly decreased"}, {"measurement": "EPO in the BAL", "setting": "[2]; 20 μg dose of BUD", "value": "decrease"}, {"measurement": "EPO activity in BAL with Mch challenge", "setting": "[2]; 20 μg budesonide daily", "value": "did not show a significant decrease"}, {"measurement": "EPO activity in BAL with Mch challenge", "setting": "[2]; budesonide once a week", "value": "did not show a significant decrease"}, {"measurement": "EPO activity in BAL compared to Sensitized, Untreated group", "setting": "[2]; 20 μg budesonide daily, P<0.001", "value": "significantly decreased"}, {"measurement": "EPO activity in BAL compared to Sensitized, Untreated group", "setting": "[2]; 20 μg budesonide once a week, P=0.419", "value": "did not show a significant decrease"}]}
